# Some of the results follow. Shown are side measurements of this screen, not its main read-out; they come without a call. Most of these compounds were active or inconclusive in the main read-out, so they are no random draw. Words in brackets tell the shape of the fitted curve; partial curves, single points and poor fits give uncertain potencies.
# Assay: qHTS Assay for Modulators of Lamin A Splicing
# Settings: HeLa LMNA splicing GFP/RFP minigene ratio, 48 h
# Summary of the method: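 Read-out is the ratio of GFP to DsRed2 object intensity, acquired by 488 nm laser-scanning cytometry on HeLa lamin A-EGFP minigene reporter cells. Compound incubation 48 hrs at 37 °C in Opti-MEM with 2% FBS; DMSO 0.5% final.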
# [1] = measured here: GFP splicing reporter channel
# [2] = measured here: RFP viability control channel
Compound,AC50 [1],AC50 [2]
Cc1ccc(NCCC(=O)c2ccc(Br)cc2)cc1,"35.5 µM [falling, single point]",
O=C1Nc2ccccc2Oc2cc(Oc3ccc(Cl)cc3)ccc21,,"35.5 µM [falling, partial curve, poor fit]"
C=CCn1c(C2CC2)n[nH]c1=S,"3.98 µM [falling, partial curve]",
CCN(CC)S(=O)(=O)c1cccc(C(=O)NC(C(=O)NC2=NCCS2)C(C)C)c1 (stereo not given),,"10 µM [rising, partial curve]"
Cc1ccc(Nc2c([N+](=O)[O-])c(=O)oc3ccccc23)cc1C,,"5.62 µM [falling, single point]"
Cc1cc(NCC(c2ccccc2)c2ccccc2)n2ncnc2n1,"14.1 µM [falling, partial curve, poor fit]","4.47 µM [falling, full curve]"
CC(C)(C)C1=CC(=O)C(=O)C(C(C)(C)C)=C1,"35.5 µM [rising, single point]",
Cc1c(C2N3CC4(C)CN2CC(C)(C3)C4=O)c2ccccc2n1C (stereo not given),,"2 µM [falling, partial curve, poor fit]"
COc1ccc(NC(=O)N2CCN(c3nc(-c4cccc(OC)c4)cs3)CC2)cc1,,"17.8 µM [rising, partial curve, poor fit]"
CNC(=O)c1ccccc1S(=O)(=O)c1ccccc1C#N,"3.16 µM [rising, single point]",
CCc1ccc2nc(N3CCN(C(=O)c4ccco4)CC3)sc2c1,"0.708 µM [falling, full curve]",
CCOc1cc(C(N)=O)cc(Cl)c1OCC,,"0.00891 µM [falling, full curve, poor fit]"
O=C(OC(c1ccc(NS(=O)(=O)c2ccccc2)cc1)(C(F)(F)F)C(F)(F)F)c1ccccc1,"14.1 µM [rising, single point]","12.6 µM [rising, partial curve]"
C=CCN1C(=O)/C(=C/c2ccccc2)S/C1=N/c1nccs1,"12.6 µM [rising, partial curve, poor fit]","22.4 µM [rising, partial curve, poor fit]"
Cc1ccc(C)c(S(=O)(=O)Nc2ccc3sc(C)nc3c2)c1,"17.8 µM [rising, single point]","35.5 µM [rising, single point]"
Cc1ccc(C)c(N2CCN(C(=O)c3c4c(nc5ccccc35)C(=O)N(C3CCCCC3)C4)CC2)c1,"0.0126 µM [falling, full curve, poor fit]",
COc1ccc(-n2nnc3c(=O)n(Cc4ccccc4C)cnc32)cc1,,"0.251 µM [falling, full curve]"
COc1ccc(C2CC(c3ccccc3)=NN2C(=O)CSc2ncn[nH]2)cc1 (stereo not given),,"0.126 µM [rising, full curve, poor fit]"
Cc1cccc2[nH]c3c(N4CCC5(CC4)OCCO5)ncnc3c12,"8.91 µM [rising, partial curve]","11.2 µM [rising, partial curve, poor fit]"

Compound,AC50 [1],AC50 [2]
S=C(Nc1ccc(Cl)cc1)N1CCN(C2CCCCC2)CC1,,"6.31 µM [rising, partial curve]"
CC(C)(C)N(NC(=O)Nc1ccc(Cl)c(Cl)c1)C(=O)c1ccccc1,"35.5 µM [falling, single point]","35.5 µM [falling, single point]"
CSc1ccc(S(=O)(=O)N2CCN(Cc3ccc4c(c3)OCO4)CC2)cc1,"35.5 µM [rising, single point]","35.5 µM [rising, single point]"
CNS(=O)(=O)c1ccc(Oc2ccc(S(=O)(=O)NC)cc2)cc1,,"11.2 µM [rising, single point]"
COc1ccc(C(=O)NC(=S)N2CCCCC2)cc1[N+](=O)[O-],,"0.224 µM [rising, full curve, poor fit]"
CCOC(=O)N1CCC(NC(=O)c2cc(S(=O)(=O)N3CCc4ccccc43)cn2C)CC1,"5.62 µM [rising, partial curve, poor fit]","11.2 µM [rising, partial curve, poor fit]"
Cc1cc(C)cc(SCc2noc(C(=O)NC(C)C)c2C(=O)O)c1,"0.112 µM [falling, partial curve]",
CSc1nc2c([nH]c3ccccc32)c(=O)n1-c1ccc(F)cc1,"11.2 µM [falling, single point]","12.6 µM [falling, partial curve, poor fit]"
S=C1NC2(CCCCC2)Nc2ccccc21,"0.0447 µM [falling, full curve, poor fit]",
CC(=O)N(C)C1=C(N2CCOCC2)C(=O)c2ccccc2C1=O,,"14.1 µM [rising, partial curve]"
CCOc1ccc(NC(=O)C(=O)N/N=C/c2ccccc2F)cc1,"0.562 µM [falling, full curve]","0.501 µM [falling, partial curve, poor fit]"
CC(=O)c1cc(-c2ccccc2)n(CCC(=O)Nc2cc(C)cc(C)c2)c1C,,"31.6 µM [rising, single point]"
CCOCC(=O)Nc1nnc(COc2ccc(Cl)cc2)s1,,"12.6 µM [rising, partial curve, poor fit]"
O=c1[nH]c2cc(Cl)ccc2n1-c1ccccc1,"6.31 µM [rising, partial curve, poor fit]","11.2 µM [rising, partial curve]"
O=[N+]([O-])c1ccc(-c2cnc(SC(c3ccccc3)c3ccccc3)[nH]2)cc1,,"22.4 µM [rising, single point]"
O=C(COCc1cc(-c2ccco2)on1)Nc1ccc(OC(F)(F)F)cc1,,"10 µM [falling, partial curve]"
COc1cccc(OC)c1C(=O)Nc1ccc2c(c1)CCCN2S(=O)(=O)c1ccc(C)cc1,"12.6 µM [falling, partial curve, poor fit]",
COc1ccccc1CN1CCNC(=O)C1CC(=O)N(C)Cc1cnccn1 (stereo not given),"0.0355 µM [falling, full curve, poor fit]",
Clc1ccccc1Cn1nnc2c(Nc3ccccc3)ncnc21,"17.8 µM [rising, partial curve, poor fit]","14.1 µM [rising, partial curve]"

# Arranged by count of non-hydrogen atoms (largest number first): 3 of the compounds above.
Compound,AC50 [1],AC50 [2]
COc1cccc(OC)c1C(=O)Nc1ccc2c(c1)CCCN2S(=O)(=O)c1ccc(C)cc1,"12.6 µM [falling, partial curve, poor fit]",
Cc1cc(NCC(c2ccccc2)c2ccccc2)n2ncnc2n1,"14.1 µM [falling, partial curve, poor fit]","4.47 µM [falling, full curve]"
CNC(=O)c1ccccc1S(=O)(=O)c1ccccc1C#N,"3.16 µM [rising, single point]",

# Following part.

Compound,AC50 [1],AC50 [2]
CCOC(=O)c1ccc(NC(=S)NNC(=O)C2(C)CC2(Cl)Cl)cc1 (stereo not given),,"25.1 µM [rising, single point]"
O=C(NC1CCCC1)c1cc(-c2cccs2)on1,"35.5 µM [falling, single point]","4.47 µM [rising, single point]"
COc1cccc(/C(C#N)=C/c2c(-c3ccc(Cl)cc3)nc3c(C)cccn23)c1,,"22.4 µM [rising, single point]"
O=C(Cn1c(=O)c(=O)n(Cc2ccccc2)c2ccc(Cl)cc21)Nc1ccc(F)cc1F,,"2.82 µM [rising, full curve]"
NNC(=O)COc1ncn(-c2ccccc2)n1,"11.2 µM [rising, single point]",
COC(=O)c1ccc(NC2(C#N)C(=O)Nc3ccccc32)cc1 (stereo not given),,"31.6 µM [rising, single point]"
CCOc1ccc(NC(=O)c2ccc(NC(=O)Cc3n[nH]c(=O)c4ccccc34)cc2)cc1,"0.316 µM [falling, full curve, poor fit]","0.251 µM [falling, full curve]"
CN1CCN(CC(=O)N(C)c2nc(-c3ccccc3)cs2)CC1,,"0.282 µM [rising, full curve, poor fit]"
O=C(NC(=S)Nc1ccc(Cl)cn1)C(c1ccccc1)c1ccccc1,,"35.5 µM [rising, single point]"
CCOC(=O)c1sc2ccccc2c1OC(=O)c1ccccc1,,"31.6 µM [rising, single point]"
COc1cc(-c2c(C#N)c(=O)[nH]c3c2c(C)nn3-c2ccccc2)ccc1O,,"35.5 µM [rising, single point]"
Cc1cc(C)c2nc(NNC(=O)c3cc(-c4cccs4)nc4ccccc34)sc2c1,,"14.1 µM [rising, partial curve]"
CC(C)(C)NC(=O)C(=O)NNC(=O)C12CC3CC(CC(C3)C1)C2,,"1.26 µM [falling, full curve]"
Cc1noc(/C=C/c2ccco2)c1S(=O)(=O)N1CCC(C(=O)N2c3ccccc3CC2C)CC1 (stereo not given),,"10 µM [rising, partial curve, poor fit]"
CCC1C(c2ccccc2)N(C)C(c2ccccc2)CC1(O)c1ccccc1 (stereo not given),"12.6 µM [falling, partial curve]","12.6 µM [falling, partial curve, poor fit]"
COC(=O)c1ccc(Sc2nnnn2-c2ccccc2)c([N+](=O)[O-])c1,"17.8 µM [rising, single point]",
CCCOc1ccc(C(=O)C(CN2CCOCC2)c2ccccc2)cc1 (stereo not given),"35.5 µM [falling, single point]","35.5 µM [falling, single point]"
COc1ccccc1N(C(=O)c1ccncc1)c1nc(-c2ccc([N+](=O)[O-])cc2)cs1,"20 µM [rising, single point]","31.6 µM [rising, single point]"
Cc1ccc(NC(=S)N(CCCN2CCOCC2)Cc2ccco2)cc1Cl,"15.8 µM [rising, single point]","15.8 µM [rising, single point]"

# Fetched by compound from the list above, two records:
Compound,AC50 [1],AC50 [2]
COc1cc(-c2c(C#N)c(=O)[nH]c3c2c(C)nn3-c2ccccc2)ccc1O,,"35.5 µM [rising, single point]"
Cc1noc(/C=C/c2ccco2)c1S(=O)(=O)N1CCC(C(=O)N2c3ccccc3CC2C)CC1 (stereo not given),,"10 µM [rising, partial curve, poor fit]"
